Measurements reported in the supplement of paper PMC10849652.
The list shows a part of the results.

Sequences of proteins named here, by UniProt entry; tags and fusion partners are left off. A change or cut given only in a name is not applied to a line headed by its entry.
UniProt Q9UI43: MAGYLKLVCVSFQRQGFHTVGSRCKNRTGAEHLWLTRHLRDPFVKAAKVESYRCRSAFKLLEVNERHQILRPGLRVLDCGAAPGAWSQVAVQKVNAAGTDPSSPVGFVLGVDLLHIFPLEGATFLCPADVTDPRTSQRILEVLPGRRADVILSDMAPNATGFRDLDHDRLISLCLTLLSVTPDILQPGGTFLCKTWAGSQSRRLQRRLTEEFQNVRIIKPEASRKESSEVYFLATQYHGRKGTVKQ
UniProt Q13064: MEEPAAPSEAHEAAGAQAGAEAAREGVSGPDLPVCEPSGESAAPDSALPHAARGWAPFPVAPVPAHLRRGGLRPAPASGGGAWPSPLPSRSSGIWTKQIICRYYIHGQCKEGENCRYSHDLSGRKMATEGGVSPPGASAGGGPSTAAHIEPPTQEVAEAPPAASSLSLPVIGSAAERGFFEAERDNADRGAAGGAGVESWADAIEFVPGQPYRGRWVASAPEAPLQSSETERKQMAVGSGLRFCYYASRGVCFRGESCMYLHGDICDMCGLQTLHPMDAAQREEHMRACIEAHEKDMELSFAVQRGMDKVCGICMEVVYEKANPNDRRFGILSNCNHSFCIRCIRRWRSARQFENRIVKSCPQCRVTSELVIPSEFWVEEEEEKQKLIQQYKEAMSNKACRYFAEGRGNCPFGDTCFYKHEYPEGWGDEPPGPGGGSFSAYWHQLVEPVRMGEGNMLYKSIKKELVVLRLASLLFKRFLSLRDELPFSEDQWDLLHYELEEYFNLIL
UniProt Q99549: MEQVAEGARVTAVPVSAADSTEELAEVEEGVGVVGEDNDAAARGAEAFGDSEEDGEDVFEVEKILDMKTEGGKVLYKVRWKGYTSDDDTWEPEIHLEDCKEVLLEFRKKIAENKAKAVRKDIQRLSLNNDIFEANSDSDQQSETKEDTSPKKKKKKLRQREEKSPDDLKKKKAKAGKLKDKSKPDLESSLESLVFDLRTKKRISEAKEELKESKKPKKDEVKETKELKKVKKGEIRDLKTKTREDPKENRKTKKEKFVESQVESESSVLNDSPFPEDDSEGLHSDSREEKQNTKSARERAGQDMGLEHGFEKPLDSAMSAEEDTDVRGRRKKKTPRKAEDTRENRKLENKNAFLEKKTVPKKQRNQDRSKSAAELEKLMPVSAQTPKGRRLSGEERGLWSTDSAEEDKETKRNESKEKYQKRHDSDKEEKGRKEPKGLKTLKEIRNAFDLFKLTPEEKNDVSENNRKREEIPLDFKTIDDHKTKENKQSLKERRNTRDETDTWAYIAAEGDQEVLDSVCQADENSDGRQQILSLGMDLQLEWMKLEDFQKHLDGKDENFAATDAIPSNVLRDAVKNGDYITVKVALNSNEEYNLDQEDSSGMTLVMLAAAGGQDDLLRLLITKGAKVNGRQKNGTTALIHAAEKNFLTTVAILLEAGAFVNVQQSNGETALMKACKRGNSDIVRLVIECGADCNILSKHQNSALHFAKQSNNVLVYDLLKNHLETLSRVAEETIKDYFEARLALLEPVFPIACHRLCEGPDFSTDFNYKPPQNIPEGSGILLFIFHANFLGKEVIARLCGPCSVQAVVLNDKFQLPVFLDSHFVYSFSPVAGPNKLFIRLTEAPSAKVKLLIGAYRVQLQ
UniProt Q7L4E1: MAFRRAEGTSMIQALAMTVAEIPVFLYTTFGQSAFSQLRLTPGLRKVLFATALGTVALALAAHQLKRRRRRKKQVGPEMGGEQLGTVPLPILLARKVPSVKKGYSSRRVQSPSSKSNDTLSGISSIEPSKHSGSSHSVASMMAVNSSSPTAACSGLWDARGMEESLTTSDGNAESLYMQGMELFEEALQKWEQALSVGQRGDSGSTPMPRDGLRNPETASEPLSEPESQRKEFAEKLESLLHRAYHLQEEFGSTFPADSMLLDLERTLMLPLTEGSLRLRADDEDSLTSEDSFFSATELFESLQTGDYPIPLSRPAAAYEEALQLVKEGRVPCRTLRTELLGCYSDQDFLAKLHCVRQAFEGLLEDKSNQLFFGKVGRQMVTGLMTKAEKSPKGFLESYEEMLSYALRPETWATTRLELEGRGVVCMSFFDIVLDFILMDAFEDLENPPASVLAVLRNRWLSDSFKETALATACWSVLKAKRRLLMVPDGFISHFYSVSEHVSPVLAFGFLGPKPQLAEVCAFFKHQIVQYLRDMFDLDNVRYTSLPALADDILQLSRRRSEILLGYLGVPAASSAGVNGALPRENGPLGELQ
UniProt Q8TDZ2: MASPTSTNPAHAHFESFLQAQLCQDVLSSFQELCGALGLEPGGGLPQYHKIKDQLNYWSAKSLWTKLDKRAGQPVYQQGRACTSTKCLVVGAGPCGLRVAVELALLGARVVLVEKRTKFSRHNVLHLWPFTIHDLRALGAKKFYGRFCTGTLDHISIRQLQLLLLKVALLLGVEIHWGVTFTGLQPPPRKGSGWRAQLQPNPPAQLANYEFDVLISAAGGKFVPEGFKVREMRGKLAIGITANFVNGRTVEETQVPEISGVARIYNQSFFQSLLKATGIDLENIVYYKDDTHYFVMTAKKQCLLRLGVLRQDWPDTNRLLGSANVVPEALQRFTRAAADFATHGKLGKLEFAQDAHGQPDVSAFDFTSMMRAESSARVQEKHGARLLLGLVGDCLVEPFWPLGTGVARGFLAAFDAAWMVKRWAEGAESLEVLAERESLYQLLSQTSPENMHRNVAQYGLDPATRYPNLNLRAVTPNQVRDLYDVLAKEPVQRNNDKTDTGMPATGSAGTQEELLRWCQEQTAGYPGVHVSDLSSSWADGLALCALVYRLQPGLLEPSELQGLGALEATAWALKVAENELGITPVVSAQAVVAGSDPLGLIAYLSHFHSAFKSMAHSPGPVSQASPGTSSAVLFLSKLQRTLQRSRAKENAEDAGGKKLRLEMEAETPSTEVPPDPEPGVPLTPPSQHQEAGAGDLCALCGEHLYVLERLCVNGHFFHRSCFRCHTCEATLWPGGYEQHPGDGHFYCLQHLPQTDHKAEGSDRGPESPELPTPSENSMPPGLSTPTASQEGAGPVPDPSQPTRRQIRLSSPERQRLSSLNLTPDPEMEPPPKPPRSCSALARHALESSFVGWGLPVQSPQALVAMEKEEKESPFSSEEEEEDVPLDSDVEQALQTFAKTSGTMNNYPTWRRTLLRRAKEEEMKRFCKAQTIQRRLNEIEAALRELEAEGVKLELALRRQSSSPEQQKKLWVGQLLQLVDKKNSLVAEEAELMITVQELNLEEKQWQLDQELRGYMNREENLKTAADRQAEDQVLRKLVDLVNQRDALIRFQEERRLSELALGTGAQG
UniProt Q8IVH4: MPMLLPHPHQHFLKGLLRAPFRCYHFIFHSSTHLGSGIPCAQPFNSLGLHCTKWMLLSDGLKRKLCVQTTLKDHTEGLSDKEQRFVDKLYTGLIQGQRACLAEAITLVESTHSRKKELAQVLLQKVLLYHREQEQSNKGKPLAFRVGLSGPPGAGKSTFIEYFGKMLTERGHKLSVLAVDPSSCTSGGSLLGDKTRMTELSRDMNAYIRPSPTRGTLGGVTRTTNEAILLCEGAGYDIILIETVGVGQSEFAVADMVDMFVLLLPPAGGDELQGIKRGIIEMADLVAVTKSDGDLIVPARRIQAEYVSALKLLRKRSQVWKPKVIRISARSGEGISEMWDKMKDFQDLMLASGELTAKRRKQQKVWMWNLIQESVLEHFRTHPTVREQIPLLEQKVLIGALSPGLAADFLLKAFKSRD
UniProt P39210: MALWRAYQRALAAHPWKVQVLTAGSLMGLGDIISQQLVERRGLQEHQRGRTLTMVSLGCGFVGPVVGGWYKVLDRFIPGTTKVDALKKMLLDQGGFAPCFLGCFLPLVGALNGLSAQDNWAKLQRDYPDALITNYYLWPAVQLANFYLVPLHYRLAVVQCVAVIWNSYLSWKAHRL
UniProt Q8N4V1: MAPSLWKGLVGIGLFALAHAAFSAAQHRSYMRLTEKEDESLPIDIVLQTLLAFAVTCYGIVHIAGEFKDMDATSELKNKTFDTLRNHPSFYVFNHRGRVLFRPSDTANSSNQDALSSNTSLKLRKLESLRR
UniProt O75030: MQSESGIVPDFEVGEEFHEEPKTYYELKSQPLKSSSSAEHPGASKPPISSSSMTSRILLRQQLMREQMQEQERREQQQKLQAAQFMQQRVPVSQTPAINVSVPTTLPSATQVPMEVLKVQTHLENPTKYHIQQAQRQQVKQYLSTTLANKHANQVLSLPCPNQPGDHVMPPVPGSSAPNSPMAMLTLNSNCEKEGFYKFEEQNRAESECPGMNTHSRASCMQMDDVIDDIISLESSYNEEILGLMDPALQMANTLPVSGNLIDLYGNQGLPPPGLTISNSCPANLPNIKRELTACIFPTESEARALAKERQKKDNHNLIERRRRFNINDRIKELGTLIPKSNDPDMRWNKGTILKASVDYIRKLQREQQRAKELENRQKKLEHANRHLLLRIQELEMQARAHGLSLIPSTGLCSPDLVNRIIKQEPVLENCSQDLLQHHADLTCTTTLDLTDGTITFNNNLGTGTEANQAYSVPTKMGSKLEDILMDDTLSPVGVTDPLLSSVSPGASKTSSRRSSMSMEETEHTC
UniProt Q5TGZ0: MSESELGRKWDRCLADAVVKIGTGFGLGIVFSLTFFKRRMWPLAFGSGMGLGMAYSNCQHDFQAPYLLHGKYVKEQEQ
UniProt Q9NPA3, whole entry, looked up: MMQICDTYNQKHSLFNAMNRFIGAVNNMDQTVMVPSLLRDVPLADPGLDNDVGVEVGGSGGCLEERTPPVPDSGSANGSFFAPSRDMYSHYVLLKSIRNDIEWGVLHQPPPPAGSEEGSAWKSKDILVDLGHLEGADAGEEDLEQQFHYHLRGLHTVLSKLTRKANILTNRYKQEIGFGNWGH
UniProt Q70IA6: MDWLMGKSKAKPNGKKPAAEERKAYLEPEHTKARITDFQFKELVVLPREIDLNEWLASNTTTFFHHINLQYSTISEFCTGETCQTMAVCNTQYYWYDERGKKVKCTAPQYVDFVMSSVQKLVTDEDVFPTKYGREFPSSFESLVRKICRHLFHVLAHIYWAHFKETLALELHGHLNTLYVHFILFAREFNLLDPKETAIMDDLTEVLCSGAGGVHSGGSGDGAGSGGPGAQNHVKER
UniProt P22033: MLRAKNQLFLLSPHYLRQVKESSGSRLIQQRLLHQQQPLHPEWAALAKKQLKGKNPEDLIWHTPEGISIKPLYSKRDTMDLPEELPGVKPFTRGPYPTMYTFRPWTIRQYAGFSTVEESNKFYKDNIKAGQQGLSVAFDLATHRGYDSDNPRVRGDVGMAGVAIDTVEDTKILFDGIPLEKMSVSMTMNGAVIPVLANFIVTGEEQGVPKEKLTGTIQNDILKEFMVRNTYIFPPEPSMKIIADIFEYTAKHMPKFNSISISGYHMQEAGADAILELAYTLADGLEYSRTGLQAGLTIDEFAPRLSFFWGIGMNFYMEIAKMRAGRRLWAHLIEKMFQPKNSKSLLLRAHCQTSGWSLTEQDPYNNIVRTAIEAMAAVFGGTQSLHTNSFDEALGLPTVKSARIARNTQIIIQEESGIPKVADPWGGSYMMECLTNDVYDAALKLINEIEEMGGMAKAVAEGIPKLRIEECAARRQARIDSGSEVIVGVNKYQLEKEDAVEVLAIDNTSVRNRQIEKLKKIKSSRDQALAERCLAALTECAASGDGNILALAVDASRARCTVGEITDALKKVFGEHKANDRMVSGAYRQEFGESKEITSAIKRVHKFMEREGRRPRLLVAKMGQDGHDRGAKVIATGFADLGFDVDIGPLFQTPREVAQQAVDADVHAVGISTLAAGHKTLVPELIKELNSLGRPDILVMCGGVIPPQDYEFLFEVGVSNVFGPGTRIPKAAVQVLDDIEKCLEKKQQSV
UniProt P08473: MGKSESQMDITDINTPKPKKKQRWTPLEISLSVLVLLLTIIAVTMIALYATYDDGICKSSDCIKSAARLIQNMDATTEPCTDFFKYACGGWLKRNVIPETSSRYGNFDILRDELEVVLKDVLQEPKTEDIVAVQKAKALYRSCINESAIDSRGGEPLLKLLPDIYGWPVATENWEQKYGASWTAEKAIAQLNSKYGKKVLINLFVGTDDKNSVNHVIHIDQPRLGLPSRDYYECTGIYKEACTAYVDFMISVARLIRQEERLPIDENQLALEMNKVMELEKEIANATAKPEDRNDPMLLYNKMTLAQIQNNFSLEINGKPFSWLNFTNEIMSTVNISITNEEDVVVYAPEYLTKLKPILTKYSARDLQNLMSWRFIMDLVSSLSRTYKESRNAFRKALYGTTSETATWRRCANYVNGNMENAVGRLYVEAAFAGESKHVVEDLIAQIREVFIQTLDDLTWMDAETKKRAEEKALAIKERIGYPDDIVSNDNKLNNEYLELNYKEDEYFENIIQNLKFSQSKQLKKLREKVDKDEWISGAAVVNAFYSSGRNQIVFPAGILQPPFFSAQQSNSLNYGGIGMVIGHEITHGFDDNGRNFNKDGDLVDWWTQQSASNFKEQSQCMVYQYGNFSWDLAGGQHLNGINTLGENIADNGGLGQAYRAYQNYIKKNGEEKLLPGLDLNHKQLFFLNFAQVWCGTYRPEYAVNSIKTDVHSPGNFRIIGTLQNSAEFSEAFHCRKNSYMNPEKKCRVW

Assays:
Assay in all cases: log2 fold change, soluble protein after heating vs DMSO (PISA); higher = thermal stabilisation; K562 cells, 10 uM, 30 min; active = over 0.2 and 3.5 SD of the protein, either way, in both replicates (recomputed)
[1] = compound: CC1=C(SC2=C1C(=N[C@H](C3=NN=C(N32)C)CC(=O)N)C4=CC=C(C=C4)Cl)C
Procedure, shortened: (§1)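 K562 cells at 2×10^6 cells/mL were given 10 μM compound for 30 min. Aliquots then went through 3 min of heating across 48°C-58°C, were pooled, and were extracted in PBS with 0.5% NP-40 at 4°C, and the supernatant after 21,000xg for 90 min was quantified by TMTpro 16plex LC-MS/MS with channel sums equalised. Thermal stability relative to control samples, from duplicates, is given as log2 fold change.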

[2] = compound: CC1=C2C(=CC=C1)N=C(N(C2=O)C3=CC=CC=C3C)CN4C=NC5=C(N=CN=C54)N
Procedure, shortened: as §1

[3] = compound: Cc1sc2c(c1C)C(c1ccc(Cl)cc1)=N[C@@H](CC(=O)OC(C)(C)C)c1nnc(C)n1-2
Procedure, shortened: as §1

[4] = compound: c1ccc([C@@H]2C[C@H]2NC2CCNCC2)cc1
Procedure, shortened: as §1

[5] = compound: C1=CC=C(C=C1)[C@H](COC2=CC3=C(C=C2)NC(=O)N3)NC(=O)C4=CC=CN(C4=O)CC5=CC(=C(C=C5)F)F
Procedure, shortened: as §1

Measured: log2 fold change

MRM2 (UniProt Q9UI43)
inactive: [1] 0.021 | [2] 0.071 | [3] 0 | [4] -0.052

MICA (UniProt Q29983)
inactive: [5] -0.008 | [2] 0.027 | [3] -0.011

MKRN3 (UniProt Q13064)
inactive: [2] 0.164 | [3] -0.025

MRPL18 (UniProt Q9H0U6)
inactive: [5] 0.06 | [1] 0.112 | [2] -0.232 | [3] 0.021 | [4] -0.13

MPHOSPH8 isoform 2 (UniProt Q99549)
inactive: [1] -0.064 | [2] -0.009 | [3] 0.089 | [4] 0.061

MIER2 (UniProt Q8N344)
inactive: [1] 0.006 | [2] -0.093 | [4] 0.215

MIGA2 (UniProt Q7L4E1)
inactive: [1] -0.173 | [4] -0.345

MLKL (UniProt Q8NB16)
inactive: [1] 0.049 | [2] 0.086 | [3] -0.05 | [4] 0.047

Reprinted at random: 2 entries already listed, in no set order.
MIER2 (UniProt Q8N344)
inactive: [1] 0.006 | [2] -0.093 | [4] 0.215

MRPL18 (UniProt Q9H0U6)
inactive: [5] 0.06 | [1] 0.112 | [2] -0.232 | [3] 0.021 | [4] -0.13

(next part)

MRPL16 (UniProt Q9NX20)
inactive: [5] -0.047 | [1] -0.328 | [2] -0.093 | [3] 0.047 | [4] -0.03

MICAL1 isoform 4 (UniProt Q8TDZ2)
inactive: [1] 0.075 | [2] 0.102 | [4] 0.045

MRPL53 (UniProt Q96EL3)
inactive: [5] 0.011 | [1] -0.045 | [2] 0.034 | [3] 0.001 | [4] -0.061

MMAA (UniProt Q8IVH4)
inactive: [1] 0.105 | [4] -0.244

MPV17 (UniProt P39210)
inactive: [5] 0.01 | [1] 0.021 | [3] -0.087 | [4] 0.048

MMGT1 (UniProt Q8N4V1)
inactive: [5] 0.018 | [1] 0.085 | [2] 0.131 | [3] -0.092 | [4] -0.016

MPZL1 isoform 3 (UniProt O95297)
inactive: [1] 0.017 | [3] -0.029 | [4] -0.095

MITF (UniProt O75030)
inactive: [2] -0.059

MRNIP (UniProt Q6NTE8)
inactive: [2] 0.02 | [3] -0.175

MICOS10 (UniProt Q5TGZ0)
inactive: [5] -0.085 | [2] -0.079 | [3] -0.238

MID1IP1 (UniProt Q9NPA3)
inactive: [5] 0.02 | [2] 0.322 | [3] -0.227

MOB2 isoform 3 (UniProt Q70IA6)
inactive: [5] -0.015 | [1] 0.129 | [3] 0.067 | [4] -0.096

MRPL33 (UniProt O75394)
inactive: [5] 0.125 | [1] 0.033 | [2] 0.06 | [3] -0.022 | [4] -0.109

MOCS2 (UniProt O96033)
inactive: [1] 0.475 | [3] -0.044 | [4] -0.216

MMUT (UniProt P22033)
inactive: [5] -0.012 | [1] 0.054 | [2] 0.074 | [3] -0.008 | [4] 0

MRPL50 (UniProt Q8N5N7)
inactive: [5] 0.11 | [1] 0.01 | [2] -0.079 | [3] -0.022 | [4] -0.05

MPC2 (UniProt O95563)
inactive: [5] -0.022 | [1] 0.046 | [2] 0.057 | [3] -0.024 | [4] 0.012

MME (UniProt P08473)
inactive: [5] -0.051 | [2] -0.114

MRPL41 (UniProt Q8IXM3)
inactive: [5] 0.119 | [1] -0.12 | [2] -0.073 | [3] 0.108 | [4] 0.011

MRPL20 (UniProt Q9BYC9)
inactive: [5] 0.026 | [1] -0.119 | [2] -0.064 | [3] 0.087 | [4] -0.152

MPC1 (UniProt Q9Y5U8)
inactive: [5] 0.272 | [1] 0.051 | [3] -0.164 | [4] -0.05

MICALL1 (UniProt Q8N3F8)
inactive: [1] 0.087 | [2] 0.147 | [3] 0.152 | [4] 0.066

MON1A (UniProt Q86VX9)
inactive: [5] 0.1 | [3] -0.071
